# Reference: patent publication US20230149560A1, “LIPID COMPOSITIONS FOR DELIVERY OF STING AGONIST COMPOUNDS AND USES THEREOF” (priority 2020, published 2023)
# Some entries share one result that the patent states for a list of compounds. For at least one compound, name, drawing or mass did not settle the structure.
# Tested on: MC38 tumors
# Assay: MC38 flank tumor model, single intravenous dose
# Type: in vivo, mouse
# Settings: MC38, single iv: parent CDN 5 or 100 nmol, ADU-S100 100 nmol
# Experimental: Specifically, a single intravenous injection of LND 1 prepared as described in Example 3 was compared to intravenous injection of parent CDN for effects on tumor growth in a mouse model of colon adenocarcinoma. Tumors were established in 8-10 week old C57BL/6 mice by inoculating the right flank with a subcutaneous injection of 5x10^5 MC38 cells suspended in PBS. On day 7 post-inoculation, the mice were administered an intravenous injection of either parent CDN or LND-formulated CDN at a dose of 5 nmol CDN. Tumor area was measured on days 7, 10, and 12 and compared to untreated mice that received an intratumoral injection of PBS on day 7. The mice were then sacrificed on day 13, and excised tumors were weighed.
# Mice were inoculated with MC38 tumors as described above. […] Following administration, tumor growth and animal survival was monitored and compared to untreated mice that received an injection of PBS. […]
# Systemic administration of LND or liposome particles comprising CDN-PEG-Lipid was compared in the MC38 tumor model. […] The effect on tumor area and survival was evaluated and compared to untreated mice receiving an injection of PBS alone. Tumor size was measured by area (longest dimension x perpendicular dimension) and the mice were euthanized when the tumor area exceeded 150 mm^2 or tumor ulceration became severe.
compound,measurement,value
CCN(CC)CC.Nc1nc2c(ncn2[C@@H]2O[C@@H]3COP(=O)(S)O[C@H]4[C@H]5OC[C@]4(COP(=O)(O)O[C@@H]2[C@@H]3O)O[C@H]5n2cnc3c(N)ncnc32)c(=O)[nH]1 (stereo partly shown) [parent CDN],day by which euthanasia was required,≤ 20 days
